Results published in publication PMC5996148.
“And” between values parts separate entries of the source, which are not always exact repeats. Equal values may be shown once. The list shows a part of the results. For some assays here: Construct or isoform of the protein are uncertain.

Sequences of proteins named here, by UniProt entry; tags and fusion partners are left off.
UniProt P02751, whole entry: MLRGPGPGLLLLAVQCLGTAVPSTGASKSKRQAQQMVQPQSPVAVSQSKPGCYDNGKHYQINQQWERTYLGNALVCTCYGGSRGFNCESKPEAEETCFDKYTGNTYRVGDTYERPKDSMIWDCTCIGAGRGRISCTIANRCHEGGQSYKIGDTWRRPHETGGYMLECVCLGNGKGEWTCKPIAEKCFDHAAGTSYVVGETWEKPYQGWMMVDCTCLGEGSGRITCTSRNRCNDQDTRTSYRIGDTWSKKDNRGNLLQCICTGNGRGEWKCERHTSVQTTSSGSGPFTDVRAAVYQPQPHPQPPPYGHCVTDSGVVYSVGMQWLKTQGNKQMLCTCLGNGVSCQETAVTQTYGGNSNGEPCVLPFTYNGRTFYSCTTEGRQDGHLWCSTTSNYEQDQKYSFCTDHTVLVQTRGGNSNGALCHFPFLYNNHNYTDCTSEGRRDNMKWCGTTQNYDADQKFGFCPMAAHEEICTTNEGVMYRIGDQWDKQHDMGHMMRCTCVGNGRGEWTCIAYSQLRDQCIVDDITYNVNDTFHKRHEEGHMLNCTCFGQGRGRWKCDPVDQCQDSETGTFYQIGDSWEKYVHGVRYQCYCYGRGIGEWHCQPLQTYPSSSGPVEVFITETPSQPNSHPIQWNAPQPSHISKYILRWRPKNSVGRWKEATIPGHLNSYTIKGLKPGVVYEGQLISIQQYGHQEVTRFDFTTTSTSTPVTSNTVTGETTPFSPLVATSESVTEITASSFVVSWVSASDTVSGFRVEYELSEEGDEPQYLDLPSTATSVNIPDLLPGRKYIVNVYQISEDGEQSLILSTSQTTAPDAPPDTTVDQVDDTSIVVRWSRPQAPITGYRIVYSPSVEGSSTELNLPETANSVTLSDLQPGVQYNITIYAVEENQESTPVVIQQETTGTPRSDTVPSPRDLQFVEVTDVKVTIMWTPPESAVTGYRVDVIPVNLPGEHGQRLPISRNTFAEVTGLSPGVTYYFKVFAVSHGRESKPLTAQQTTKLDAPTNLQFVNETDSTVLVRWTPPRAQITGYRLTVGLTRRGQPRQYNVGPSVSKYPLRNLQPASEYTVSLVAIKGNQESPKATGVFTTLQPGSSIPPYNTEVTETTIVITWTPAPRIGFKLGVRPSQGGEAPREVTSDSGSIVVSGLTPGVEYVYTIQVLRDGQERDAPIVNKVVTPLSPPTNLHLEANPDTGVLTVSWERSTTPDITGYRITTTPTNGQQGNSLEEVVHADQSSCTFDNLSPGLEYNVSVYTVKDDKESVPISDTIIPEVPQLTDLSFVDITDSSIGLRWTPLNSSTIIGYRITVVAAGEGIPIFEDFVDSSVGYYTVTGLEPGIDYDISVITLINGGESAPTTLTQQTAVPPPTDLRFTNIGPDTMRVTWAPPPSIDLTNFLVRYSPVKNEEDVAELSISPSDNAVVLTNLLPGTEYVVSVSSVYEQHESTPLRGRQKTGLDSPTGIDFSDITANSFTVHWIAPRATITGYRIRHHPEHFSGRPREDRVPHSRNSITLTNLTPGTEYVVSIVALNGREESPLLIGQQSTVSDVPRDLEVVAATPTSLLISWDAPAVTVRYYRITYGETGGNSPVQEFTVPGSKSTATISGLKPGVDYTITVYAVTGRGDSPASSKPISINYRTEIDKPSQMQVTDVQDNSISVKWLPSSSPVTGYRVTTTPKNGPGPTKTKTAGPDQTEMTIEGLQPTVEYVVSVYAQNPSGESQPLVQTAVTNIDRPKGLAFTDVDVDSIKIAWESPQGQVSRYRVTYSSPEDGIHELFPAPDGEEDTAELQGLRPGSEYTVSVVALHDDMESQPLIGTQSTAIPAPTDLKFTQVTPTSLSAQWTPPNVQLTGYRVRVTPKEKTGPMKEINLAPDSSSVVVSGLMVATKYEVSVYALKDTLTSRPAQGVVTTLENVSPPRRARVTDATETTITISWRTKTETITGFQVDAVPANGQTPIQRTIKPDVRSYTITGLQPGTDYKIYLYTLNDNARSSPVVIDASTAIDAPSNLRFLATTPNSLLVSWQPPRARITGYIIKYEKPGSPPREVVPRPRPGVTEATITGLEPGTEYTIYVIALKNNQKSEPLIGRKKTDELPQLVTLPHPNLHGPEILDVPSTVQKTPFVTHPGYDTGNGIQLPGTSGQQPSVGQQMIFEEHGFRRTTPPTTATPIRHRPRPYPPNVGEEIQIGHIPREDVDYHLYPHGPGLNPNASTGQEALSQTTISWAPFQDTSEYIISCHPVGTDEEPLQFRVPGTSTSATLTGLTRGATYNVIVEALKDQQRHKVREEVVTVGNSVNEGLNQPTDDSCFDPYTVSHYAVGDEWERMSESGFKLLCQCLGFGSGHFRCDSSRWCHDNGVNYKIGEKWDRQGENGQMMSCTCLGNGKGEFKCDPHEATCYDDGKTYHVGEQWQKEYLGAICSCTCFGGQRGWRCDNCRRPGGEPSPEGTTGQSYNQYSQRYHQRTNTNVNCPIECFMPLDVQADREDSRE

Assays:
Assay in all cases: protein microarray (ProtoArray v5.0), streptavidin-Alexa Fluor 647
Details in all cases: 3'-biotin; 20 mM Tris (pH 7.5), 5 mM MgCl2, 100 mM KCl, 0.1% Tween-20, A/T-rich and random oligonucleotide blockers; temperature not stated; high values mean tight binding
[1] = tested on: FLJ12684 (human)
[2] = tested on: FLJ14107 (human)
[3] = tested on: FLJ20160 (human)
[4] = tested on: FLJ20489 (human)
[5] = tested on: FLJ22222 (human)
[6] = tested on: FLJ22447 (human)
[7] = tested on: FLJ23356 (human)
[8] = tested on: FLJ25758 (human)
[9] = tested on: FLJ30934 (human)
[10] = tested on: FLJ31438 (human)
[11] = tested on: FLJ36032 (human)
[12] = tested on: FLJ43980 (human)
[13] = tested on: FLJ90650 (human)
[14] = tested on: FLOT2 (human)
[15] = tested on: FLT3LG (human)
[16] = target: FN1 (UniProt P02751)
[17] = tested on: FN3KRP (human)
[18] = tested on: FNBP1 (human)
[19] = tested on: FNDC5 (human)
[20] = tested on: FNDC8 (human)

GGGAGGCTGAGGCAGG [G4-1 biotinylated (PQS2)]
binding signal [1]: -0.253 z-score | binding signal [2]: -0.293 z-score | binding signal [3]: -0.254 z-score | binding signal [4]: -0.309 z-score | binding signal [5]: -0.311 z-score | binding signal [6]: -0.307 z-score | binding signal [7]: -0.286 z-score | binding signal [8]: -0.346 z-score | binding signal [9]: -0.28 z-score and -0.296 z-score | binding signal [10]: -0.294 z-score | binding signal [11]: -0.291 z-score | binding signal [12]: -0.345 z-score | binding signal [13]: -0.306 z-score | binding signal [14]: -0.342 z-score | binding signal [15]: -0.298 z-score | binding signal [16]: -0.296 z-score | binding signal [17]: -0.324 z-score | binding signal [18]: -0.339 z-score | binding signal [19]: -0.299 z-score | binding signal [20]: -0.328 z-score
